The test can be described thus: qHTS Assay for Lipid Storage Modulators in Drosophila S3 Cells.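 On cell number change: cells counted by Cell Tracker Red CMTPX staining in the red channel.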 The settings on record: BODIPY lipid droplet fluorescence, 18-24 h; for cell number change: measured here: cell count max response, cells fed with added oleic acid. An outline of the steps: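 Drosophila S3 cells loaded with oleic acid (400 uM, as added) and compounds at several concentrations; lipid droplets imaged by 488-nm laser-scanning cytometry, 500–530 nm intensity and object ratio to cell channel. Percent activity normalized to 20 uM Triacsin C.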
(qHTS replaces the single test concentration by a dilution series.)

The mark [1] stands for this setting: measured here: lipid fluorescence (Fed channel) AC50, cells fed with added oleic acid.
[2] abbreviates: measured here: cell number channel AC50, cells fed with added oleic acid.

This is one part of the list. These are further read-outs of the screen, such as a control signal, another cell line or another target. No call is given for them. The list favours compounds with an active or inconclusive main result. The note in brackets gives the kind of curve behind each potency; many fits are weak.

For the compound `COC(=O)CNC(=O)COC(=O)Cc1ccc(Cl)cc1`, the cell number change is -47.2%. Further, the AC50 (commonly the concentration giving half of the maximal activity seen) under setting [1] is 29100 nM [falling, single point].

As for `CCCc1c(C(=O)N2CCN(c3ccccc3OC)CC2)cnn1-c1ccccc1`, the cell number change is 17.7%. Under setting [2], the AC50 was 411 nM [falling, full curve]. Moreover, under setting [1], the AC50 is 517 nM [falling, full curve].

In the case of `CCCCCCSc1nsc(NC(=O)CCC)n1`, the AC50 under setting [1] was 6510 nM [falling, single point].

As for `COc1cccc(C2CC(=O)Nc3cc(OC)c(OC)c(OC)c32)c1OC` (stereo unspecified), the cell number change was -31.1%. Besides, the AC50 under setting [2] was 1840 nM [falling, full curve, poor fit]. Besides, under setting [1], the AC50 is 580 nM [rising, single point].

On to `CC1CCCC(NC(=O)C2CCN(S(=O)(=O)N3CCCCC3)CC2)C1C` (stereo unspecified), for which the cell number change is 5.32%. The AC50 under setting [1] is 103 nM [rising, full curve, poor fit].

In the case of `CC(C)CNC(=O)C1CCN(S(=O)(=O)c2ccc(-n3cnnn3)cc2)CC1`, the cell number change was determined as 30.3%.

As for `O=C(C1COc2ccccc2O1)N1CCN(Cc2ccc3c(c2)OCO3)CC1` (stereo unspecified), the cell number change was -6.14%. The AC50 under setting [2] is 259 nM [rising, full curve]. Further, the AC50 under setting [1] is 184 nM [rising, full curve, poor fit].

For the compound `COc1cc(/C=N/Nc2nc(C)cc(C)n2)cc(OC)c1OC`, the cell number change was -0.552%.

For `O=C(NCCCN1CCOCC1)c1ccc(Cl)c(S(=O)(=O)N2CCCCCC2)c1`, the AC50 under setting [1] is 32.6 nM [falling, full curve, poor fit].

As to `CCOC(=O)Cc1c(C)nc2c(-c3ccccc3)c(-c3ccccc3)[nH]n2c1=O`, the cell number change is -31.1%. Also, the AC50 under setting [2] is 20600 nM [falling, single point]. In addition, under setting [1], the AC50 was 3660 nM [falling, partial curve].

As for `COc1ccc([N+](=O)[O-])cc1NC(=O)CCC(=O)c1cccs1`, the cell number change turned out to be 34.8%. Moreover, under setting [2], the AC50 was 4.11 nM [rising, full curve, poor fit]. The half-maximal activity concentration (AC50) under setting [1] is 231 nM [rising, full curve, poor fit].

As to `Cc1ccc(N2Cc3ccccc3C2=O)cc1`, the cell number change is -5.74%. Besides, the AC50 under setting [1] is 5170 nM [falling, single point].

On to `CCOC(=O)C(=O)c1cn(C2OCC(OC(C)=O)C(OC(C)=O)C2OC(C)=O)c2ccccc12` (stereo unspecified), for which the cell number change came out at 6.58%. Besides, the half-maximal activity concentration (AC50) under setting [1] is 820 nM [falling, single point].

As for `COc1ccc(NC(=O)c2cc(S(=O)(=O)N3CCCCC3)c[nH]2)cc1`, the cell number change is 11.1%. Also, under setting [1], the AC50 is 366 nM [rising, partial curve, poor fit].

With `CCN(CC)S(=O)(=O)c1ccc(Cl)c(NC2=NCCCCC2)c1`, the cell number change is 4.77%. Also, the AC50 under setting [1] is 92 nM [falling, full curve, poor fit].

For `O=C1C2C3CCC(C3)C2C(=O)N1c1ccc2ccccc2c1` (stereo unspecified), the cell number change worked out at 14.7%. The AC50 under setting [1] is 29100 nM [rising, single point].

With `Cc1c(Cl)cccc1-n1c(SCC(=O)NCc2cccs2)nnc1-c1ccncc1`, the cell number change was -7.51%.

Take `CCc1noc(C)c1C(=O)N1CCCC(C(=O)c2ccc(OC)c(F)c2)C1` (stereo unspecified): under setting [1], the AC50 is 731 nM [falling, single point].

For the compound `COc1ccc(S(=O)(=O)NCc2cccnc2)c2ccccc12`, the cell number change came to 7.83%.

`O=C1N(Cc2ccccc2)c2ccccc2C12OCCO2`: the cell number change worked out at 4.92%. For the same compound, the AC50 under setting [1] was 2060 nM [rising, partial curve, poor fit].

Consider `O=C(NCc1ccco1)c1c2c(nc3ccccc13)CCC2`, for which the cell number change was -5.92%. In addition, the AC50 under setting [1] is 1840 nM [rising, partial curve, poor fit].

Turning to `Cc1ccc(Cl)cc1N1CCN(C(=O)CCCn2c(=O)c3cccn3c3cccnc32)CC1`, the cell number change was -23.2%.

With `COc1ccc(C(=O)C2CCCN(C(=O)c3cnsn3)C2)c(C)c1` (stereo unspecified), the cell number change came out at 11.6%. Further, the AC50 under setting [1] is 8200 nM [rising, partial curve, poor fit].

For `CC(C)c1noc2ncc(C(=O)c3cc(Cl)cc(Cl)c3O)cc12`, the cell number change is -11.5%. Besides, under setting [2], the AC50 is 820 nM [falling, full curve, poor fit].

Regarding `CC(=O)NC(Cc1ccccc1)C(=O)OCC(=O)c1ccc(Br)cc1` (stereo unspecified), the cell number change was -2.69%. Besides, the AC50 under setting [1] was 10300 nM [falling, single point].

As for `CCc1nnc(NS(=O)(=O)c2ccc(NC(=S)NC(=O)c3ccc(F)cc3)cc2)s1`, the cell number change was 11.4%. In addition, the AC50 under setting [1] is 23100 nM [rising, single point].

As to `O=C(CCN1C(=O)/C(=C\C=C\c2ccccc2)SC1=S)Nc1ccc(C(=O)O)cc1`, the cell number change was -25%. Under setting [1], the AC50 is 1640 nM [falling, full curve].

As to `O=C(CCC1CCCC1)Nc1nnc(-c2ccc3c(c2)OCO3)s1`, the cell number change stood at 74.3%. The AC50 under setting [2] was 164 nM [rising, full curve, poor fit]. Moreover, the AC50 under setting [1] was 11600 nM [rising, partial curve].

On to `CC(C)Cn1c(CCNC(=O)c2ccco2)nc2ccccc21`, for which, under setting [1], the AC50 is 5170 nM [falling, full curve].

Take `S=C(NCCNC(=S)Nc1ccccc1)Nc1ccccc1`: the cell number change turned out to be 4.4%.

Take `COC(=O)c1ccc(NC(=O)COC(=O)C2CC(=O)N(Cc3ccccc3)C2)cc1` (stereo unspecified): the cell number change was -83.1%. For the same compound, under setting [2], the AC50 was 14600 nM [falling, partial curve].

On to `CCn1c(C(O)c2cc(OC)ccc2OC)nc2ccccc21` (stereo unspecified), for which the cell number change is -17.1%. Under setting [1], the AC50 is 29100 nM [falling, single point].

On to `O=C(CN(CC1CCCO1)C(=O)CCC(=O)Nc1ccccn1)NCC1CCCO1` (stereo unspecified), for which the cell number change came to 3.81%. Moreover, the AC50 under setting [2] is 7.31 nM [falling, full curve, poor fit]. Also, the AC50 under setting [1] is 651 nM [falling, full curve].

As to `Cc1nc2cc(-c3cccc(F)c3)nn2c(C)c1CCC(=O)NC(C)c1ccc2c(c1)OCCO2` (stereo unspecified), the cell number change was -13%. In addition, under setting [1], the AC50 is 1460 nM [rising, partial curve].

In the case of `O=C(Nc1cccc(NC(=O)C2C3CC4OC(=O)C2C4C3)c1)c1ccccc1` (stereo unspecified), the cell number change was -4.08%. Besides, under setting [1], the concentration at half-maximal activity (AC50) is 130 nM [falling, full curve, poor fit].

On to `O=C(COC(=O)c1ccc(O)cc1)Nc1ccc(OC(F)F)cc1`, for which the cell number change is 16.5%. The AC50 under setting [1] is 6510 nM [rising, partial curve, poor fit].

As for `CCC(C)C(=O)Nc1nnc(SCC(=O)NC(C)(C)C)s1` (stereo unspecified), under setting [2], the AC50 was 18.4 nM [falling, single point].

As to `CCOc1ccc(S(=O)(=O)N(CC(=O)NCc2ccncc2)c2ccc(C)cc2)cc1`, the cell number change worked out at 7.5%.

Source of the values: PubChem BioAssay AID2685 (National Center for Advancing Translational Sciences (NCATS), 2010).
